Data published in PubChem BioAssay AID1487 (National Center for Advancing Translational Sciences (NCATS), 2009).
The other results are listed elsewhere or left out. The main result of the screen is listed elsewhere. These columns were measured beside it and carry no call. Compounds called inactive in the main read-out are mostly missing here. The note in brackets gives the kind of curve behind each potency; many fits are weak.

Test: qHTS Assay for Modulators of Lamin A Splicing
Conditions: HeLa LMNA splicing GFP/RFP minigene ratio, 48 h
Outline: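 Read-out is the ratio of GFP to DsRed2 object intensity, acquired by 488 nm laser-scanning cytometry on HeLa lamin A-EGFP minigene reporter cells. Compound incubation 48 hrs at 37 °C in Opti-MEM with 2% FBS; DMSO 0.5% final.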

[1] = measured here: RFP viability control channel
[2] = measured here: GFP splicing reporter channel

| Compound | AC50 [1] | AC50 [2] |
| --- | --- | --- |
| N#CC1=C(SCC(=O)Nc2cccc3cccnc23)NC(=O)C(C#N)C12CCCCC2 (configuration not stated) | 28.2 µM [rising, single point] |  |
| CCc1ccc(NC(=O)c2c(Cl)nc(C)c(Cl)c2C)cc1 | 35.5 µM [rising, single point] |  |
| COc1cc(Cl)c(NS(=O)(=O)c2ccc3[nH]c(=O)ccc3c2)c(OC)c1 | 0.0224 µM [falling, full curve, poor fit] |  |
| CCCCC(=O)NC1(C(F)(F)F)C(=O)Nc2c1c(=O)[nH]c(=O)n2-c1ccc(F)cc1 (configuration not stated) |  | 5.62 µM [rising, single point] |
| Cc1ccc(-c2nnc(N3CCN(C(=O)c4ccco4)CC3)c3ccccc23)cc1 | 35.5 µM [rising, single point] | 35.5 µM [rising, single point] |
| O=C(O)C1CC=CCC1C(=O)NNc1ccccc1 (configuration not stated) |  | 0.00447 µM [rising, full curve, poor fit] |
| Cc1cccc(NC(=S)NNC(=S)NCc2ccccc2)c1 | 17.8 µM [rising, single point] | 35.5 µM [rising, single point] |
| Cc1cccc(N=Nc2c(C)c(C#N)c(O)[nH]c2=O)c1 | 0.355 µM [rising, full curve, poor fit] |  |
| Cc1ccc2c(Cl)cc(Cl)c(OCC(=O)Nc3cccc(S(N)(=O)=O)c3)c2n1 | 6.31 µM [rising, single point] | 2.82 µM [rising, partial curve] |
| COc1cccc(-c2cc(C(=O)N3CC4(C)CC3CC(C)(C)C4)no2)c1 (configuration not stated) | 35.5 µM [rising, partial curve] | 35.5 µM [rising, single point] |
| Cc1cc2c(cc1C)CSC(c1c(O)ccc3ccccc13)SC2 | 15.8 µM [rising, single point] | 10 µM [rising, partial curve] |
| CCOc1ccc(C(=O)Nc2c(C(N)=O)oc3ccccc23)cc1 | 22.4 µM [rising, single point] |  |
| COc1ccc(CCNc2nc(SCc3ccccc3Cl)nc3ccccc23)cc1OC | 3.16 µM [falling, partial curve, poor fit] | 2.51 µM [falling, partial curve, poor fit] |
| COc1cc2c(cc1OC)CN(C(=O)c1cc(S(=O)(=O)N3CCOCC3)ccc1Cl)CC2 | 12.6 µM [rising, single point] |  |
| O=S1(=O)c2ccccc2N(Cc2ccccc2Cl)c2ccccc21 | 0.0631 µM [falling, full curve, poor fit] |  |
| CCOC(=S)SCc1cn2cccc(C)c2n1 | 0.0891 µM [falling, full curve] |  |
| Cc1nnc(SC(C)C(=O)Nc2ccc(S(=O)(=O)N3CCCCCC3)cc2)s1 (configuration not stated) | 15.8 µM [rising, single point] | 12.6 µM [rising, single point] |
| CC(C)Nc1nc(NC(C)C)nc(SCCOC(=O)Nc2ccc(Cl)cc2Cl)n1 | 31.6 µM [rising, single point] | 14.1 µM [rising, single point] |
| O=c1oc2c3c4c(cc2c2c1CCC2)OCCN4CCC3 | 6.31 µM [rising, partial curve] | 5.62 µM [rising, partial curve, poor fit] |
| Cc1ccc(S(=O)(=O)N(CC(=O)Nc2ccccc2-c2ccccc2)c2ccc(C)cc2C)cc1 | 35.5 µM [rising, partial curve, poor fit] |  |
| COc1ccccc1CNc1ncnc2ccc(-c3c(C)noc3C)cc12 | 11.2 µM [rising, partial curve] | 1.58 µM [falling, full curve] |
| COc1ccccc1CNC(=O)c1ccc(-c2ccccc2C(F)(F)F)o1 | 22.4 µM [rising, single point] |  |
| Cc1ccc(OCC(O)CN2CCN(Cc3ccc4c(c3)OCO4)CC2)cc1C (configuration not stated) | 14.1 µM [rising, single point] | 11.2 µM [rising, partial curve] |
| CCN(CC)S(=O)(=O)c1cc([N+](=O)[O-])ccc1NNC(=O)Nc1ccccc1 |  | 25.1 µM [rising, single point] |
| CCOC(=O)c1ccc2c(c1)nc(SCC(=O)N1CCOCC1)n2CC |  | 1.41 µM [rising, partial curve] |
| O=C(Nc1nccs1)c1cn(-c2ccccc2)nc1-c1ccccc1 | 20 µM [rising, single point] |  |
| C(=C\c1ccccc1)/CSc1nnc(-c2cnccn2)n1Cc1ccco1 | 35.5 µM [rising, single point] | 31.6 µM [rising, single point] |

| Compound | AC50 [1] | AC50 [2] |
| --- | --- | --- |
| [O-][n+]1cccc2c(Br)cc(Br)c(O)c21 |  | 0.0112 µM [rising, full curve, poor fit] |
| CC(=O)Nc1ccc(S(=O)(=O)N2CCN(c3cc(C)ccc3C)CC2)cc1 | 35.5 µM [rising, partial curve] | 35.5 µM [rising, single point] |
| COC(=O)Cn1c(=NC(=O)c2cc(OC)c(OC)c(OC)c2)sc2cc(OC)ccc21 | 0.0224 µM [rising, full curve, poor fit] |  |
| O=C(CN1CCCN(S(=O)(=O)c2ccc(F)cc2)CC1)Nc1ccccc1Br | 35.5 µM [rising, single point] | 35.5 µM [rising, single point] |
| N#C/C(=C\c1ccc(-c2ccccc2[N+](=O)[O-])o1)C(=O)Nc1nc(-c2cccs2)cs1 | 14.1 µM [rising, single point] | 12.6 µM [rising, single point] |
| COc1ccc(CNC(=O)c2cc3c(=O)n(Cc4cccs4)ccc3nc2C)cc1 | 7.08 µM [rising, partial curve] | 8.91 µM [rising, partial curve] |
| O=C(CN1C(=O)S/C(=C/c2cccnc2)C1=O)N1CCOCC1 | 10 µM [falling, single point] |  |
| COc1ccc(CNC(=O)c2c(N)n(CCCN3CCOCC3)c3nc4ccccc4nc23)cc1 | 31.6 µM [falling, partial curve] | 35.5 µM [falling, single point] |
| O=C1OC(c2ccc(O)cc2)(c2ccc(O)cc2)c2ccccc21 | 0.0251 µM [rising, full curve, poor fit] |  |
| COc1ccc(NC(=O)/C(C#N)=C/c2c(C)nn(-c3ccc(F)cc3)c2Cl)cc1OC | 11.2 µM [rising, partial curve] |  |
| CCOC(=O)c1cc(C)n(S(=O)(=O)c2ccc(C)cc2)c1C | 15.8 µM [rising, partial curve] | 15.8 µM [rising, single point] |
| c1cc(Nc2ncnc3sccc23)cc(-c2nnc3n2CCCCC3)c1 | 14.1 µM [rising, partial curve] |  |
| COc1cccc(NC(=S)NNC(=O)c2ccccc2OC(F)F)c1 | 35.5 µM [falling, single point] | 25.1 µM [falling, single point] |
| Cc1cc(=O)n2c(C(=O)Nc3ccc(C)c(C)c3)c(C(=O)Nc3ccccc3)sc2n1 | 35.5 µM [falling, single point] |  |
| CN(C)c1ccc(CNc2nc(-c3ccco3)nn2S(=O)(=O)c2ccc(Cl)cc2)cc1 |  | 0.00794 µM [falling, full curve, poor fit] |
| Cc1nn(-c2ccc(F)cc2)c(C)c1/C=C/C(=O)N1CCNC(=O)C1 | 28.2 µM [falling, single point] |  |
| Cc1ccc(S(=O)(=O)N[C@H](C(=O)OCn2nnc3ccccc3c2=O)C(C)C)cc1 | 17.8 µM [rising, single point] |  |
| COc1ccc(C(NC(=O)C2CCCCC2)c2c(O)ccc3ccccc23)cc1 (configuration not stated) | 12.6 µM [rising, partial curve] |  |
| c1ccc2c(c1)CC1(CCCCC1)n1nnnc1-2 | 6.31 µM [rising, partial curve, poor fit] |  |
| CCn1nc(NC(=O)c2cccs2)c2cc3ccccc3nc21 |  | 35.5 µM [falling, single point] |
| CCOC(=O)c1cnc(-n2nc(C)cc2C)nc1NCCc1ccccc1 | 3.55 µM [rising, full curve] | 6.31 µM [rising, full curve] |
| CC1CCN(C(=O)COc2cccc3c2CCN(C)C3=O)CC1 | 35.5 µM [falling, partial curve, poor fit] |  |
| Cc1ccc(C)c(N2CCN(CCCNC(=O)Cn3c(-c4cccs4)cc4ccccc43)CC2)c1 | 35.5 µM [falling, partial curve] | 25.1 µM [falling, single point] |
| O=C(CCC1CC(=O)Nc2ccccc21)NCc1ccc(F)cc1 (configuration not stated) | 39.8 µM [falling, partial curve, poor fit] |  |
| COc1ccc2c(c1)c(C(=O)CN1CCN(C(=O)c3ccco3)CC1)c(C)n2C | 10 µM [rising, partial curve, poor fit] |  |
| S=C(NCCC(c1ccccc1)c1ccccc1)Nc1ccc(Cl)cc1 | 35.5 µM [falling, single point] | 35.5 µM [falling, single point] |
| O=C(NCc1ccco1)c1ccc(Cl)c(S(=O)(=O)N2CCc3ccccc32)c1 | 22.4 µM [rising, partial curve] | 20 µM [rising, single point] |

Reprinted at random: 3 entries already listed, in no set order.

| Compound | AC50 [1] | AC50 [2] |
| --- | --- | --- |
| COc1ccc(CNC(=O)c2c(N)n(CCCN3CCOCC3)c3nc4ccccc4nc23)cc1 | 31.6 µM [falling, partial curve] | 35.5 µM [falling, single point] |
| COc1cccc(-c2cc(C(=O)N3CC4(C)CC3CC(C)(C)C4)no2)c1 (configuration not stated) | 35.5 µM [rising, partial curve] | 35.5 µM [rising, single point] |
| O=C1OC(c2ccc(O)cc2)(c2ccc(O)cc2)c2ccccc21 | 0.0251 µM [rising, full curve, poor fit] |  |
